Laboratory results from patent US20190275167A1, “GLASS FORMULATIONS AND USES THEREOF” (priority 2018, published 2019).
At least one structure is not confirmed: it was looked up by name or label, or the drawing left a doubt. Some of these results come from one statement about several compounds together.

Assay: Drug release from heat-molded pellets/articles in release buffer (PBS, 1% FBS in PBS or 100% FBS) at 37° C., HPLC quantification
Format: physicochemical
Settings: for Drug release from heat molded pellets: 100% FBS, 37° C., pellets 1 mm×1 mm

With `C[C@@H]1C[C@H]2[C@@H]3CCC4=CC(=O)C=C[C@]4(C)[C@@]3(F)[C@@H](O)C[C@]2(C)[C@@]1(O)C(=O)COC(=O)OCCOCCOCCOC(=O)OCC(=O)[C@@]1(O)[C@H](C)C[C@H]2[C@@H]3CCC4=CC(=O)C=C[C@]4(C)[C@@]3(F)[C@@H](O)C[C@@]21C` [Compound 1, Dexamethasone-Triethylene Glycol-Dexamethasone] the “Period of dexamethasone release for which articles might be preferred” value (pellet of 1 mm×1 mm in 100% FBS, from release profiles FIG. 22C) was 1 or 2.

With “Fusidic Acid-Triethylene Glycol-Fusidic Acid (ester) [Compound 15]” the “Drug release from heat molded pellets” value was “no release”.

In the case of “Ethinylestradiol-Triethylene Glycol-Ethinylestradiol [Compound 16]”, the “Drug release from heat molded pellets” value is reported as “no release”.
